Measurements as given in patent publication US20210069351A1, “METHOD FOR SCREENING PAIN INHIBITING SUBSTANCE” (priority 2017, published 2021).
Some of these results come from one statement about several compounds together.

Assay: Stability of GABA and glutamate test samples under storage, treatment and analysis conditions
Format: physicochemical
Settings: all tested stability conditions
Procedure: The test samples were stored in a freezer at −70° C., and thawed at room temperature before use. 20 μL of microdialysate was added to 20 μL of acetonitrile, well mixed (vortexing, 30 sec) and centrifuged at 3,000 rpm for 5 minutes. A supernatant was taken and injected by 5 μL for LC-MS/MS analysis.
Stability was tested under various conditions for which GABA and a glutamate test sample could be exposed.

NCCCC(=O)O [GABA, γ-aminobutyric acid]
variation during the storage, treatment and analysis periods of a test sample: ≤ 8%
